Measured values published in article PMC8056617.
These are yes or no findings as the source states them, for the method shown. Binding seen in cells or lysates may run through a third protein. Some results given as binding are weak or reduced against the parent protein; the word gives no strength.

Target: T1, phosphorylated mixed lineage kinase domain-like (p-MLKL (Ser345)) (rat (endogenous in hippocampal CA1)) (UniProt D3ZKP6)
T1 sequence (chain, phosphoserine at 345 (printed as p-MLKL (Ser345))): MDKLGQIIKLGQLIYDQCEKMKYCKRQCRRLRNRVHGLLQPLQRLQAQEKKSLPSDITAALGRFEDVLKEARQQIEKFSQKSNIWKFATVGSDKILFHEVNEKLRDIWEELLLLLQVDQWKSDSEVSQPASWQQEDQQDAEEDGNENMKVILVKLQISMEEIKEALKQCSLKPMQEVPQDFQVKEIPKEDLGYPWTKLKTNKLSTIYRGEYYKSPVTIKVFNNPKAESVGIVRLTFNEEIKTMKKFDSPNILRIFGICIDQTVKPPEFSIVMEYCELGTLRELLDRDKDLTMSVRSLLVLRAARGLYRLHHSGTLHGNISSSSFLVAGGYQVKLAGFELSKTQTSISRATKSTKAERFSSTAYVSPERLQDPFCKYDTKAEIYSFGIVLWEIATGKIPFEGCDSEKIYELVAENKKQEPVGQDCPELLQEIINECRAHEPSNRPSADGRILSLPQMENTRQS
Assay: co-IP; 0.6 mg of protein from rat hippocampal CA1 incubated with rabbit monoclonal antibody against p-MLKL overnight at 4 °C, protein G agarose beads 4 h at 4 °C, washed five times with PBS containing 1% Tween, Western blotting; Sham, tGCI (4 and 48 h after reperfusion), hypoxic preconditioning or MLKL siRNA before tGCI

B1: receptor interacting protein (RIP) 3 (protein, UniProt Q9Z2P5 1-478)
chain: MSSVKLWLNGASSISLVGSEELENLGFVGKGGFGAVFRARHTAWNLDVAVKIVNSKKISREVKAMVNLRHENVLLLLGVTENLEWDYVYGPALVTGFMENGSLSGLLQPSCPRPWPLLCRLLEEVVLGMCYLHSLNPSLLHRDLKPSNVLLDPELHAKLADFGLSTFQGGSQSGSGSGSRDSGGTLAYLAPELLDNDGKASKASDVYSFGVLVWTVLAGREAEVVDKTSLIRGAVCNRQRRPPLTELPPDSPETPGLEGLKELMTHCWSSEPKDRPSFQDCESKTNNVYILVQDKVDAAVSKVKHYLSQYRSSDTKLSARESSQKGTEVDCPRETIVYEMLDRLHLEEPSGSVPERLTSLTERRGKEASFGHATPAGTSSDTLAGTPQIPHTLPSRGTTPRPAFTETPGPDPQRNQGDGRNSNPWYTWNAPNPMTGLQSIVLNNCSEVQIGQHNCMSVQPRTAFPKKEPAQFGRGRGW
B1 was tested, and the binding was “binds”.

B2: interleukin-1 type 1 receptor (IL-1R1) (receptor, UniProt Q02955 20-576)
chain: LETDKCTEYPNEVISFSSVNEIDIRSCPLTPNEMHGGTIIWYKNDSKTPISADKDSRIHQQNEHLWFVPAKMEDSGYYYCIMRNSTYCLKTKITMSVLENDPGLCYNTQASFIQRLHVAGDGSLVCPYLDFFKDENNELPKVQWYKNCKPLPLDDGNFFGFKNKLMVMNVAEEHRGNYTCRTSYTYQGKQYPVTRVITFITIDDSKRDRPVIMSPRNETMEADPGSTIQLICNVTGQFTDLVYWKWNGSEIEWDDPILAEDYQFLEHPSAKRKYTLITTLNVSEVKSQFYRYPFICFVKNTHILETAHVRLVYPVPDFKNYLIGGFAIFTATAVFCACIYKVFKVDIVLWYRDSCSDFLPRKASDGRTYDAYVLYPKTYGEGSFAYLDTFVFKLLPEVLEGQFGYKLFICGRDDYVGEDTIEVTNENVKRSRRLIIILVRDMGSFSCLGQSSEEQIAIYDALIREGIKIILLELEKIQDYEKMPESIQFIKQKHGAICWSGDFKERPQSAKTRFWKNLRYQMPAQRRSPLSKHHLLTLDPVLDTKEKLQAETHLPLG
For B2, the binding was “binds”.
